Source: paper PMC4031079
These are yes or no findings as the source states them, for the method shown.

Sequences of proteins named here, by UniProt entry; tags and fusion partners are left off. Residues count along the entry.
UniProt P48740, residues 20-699: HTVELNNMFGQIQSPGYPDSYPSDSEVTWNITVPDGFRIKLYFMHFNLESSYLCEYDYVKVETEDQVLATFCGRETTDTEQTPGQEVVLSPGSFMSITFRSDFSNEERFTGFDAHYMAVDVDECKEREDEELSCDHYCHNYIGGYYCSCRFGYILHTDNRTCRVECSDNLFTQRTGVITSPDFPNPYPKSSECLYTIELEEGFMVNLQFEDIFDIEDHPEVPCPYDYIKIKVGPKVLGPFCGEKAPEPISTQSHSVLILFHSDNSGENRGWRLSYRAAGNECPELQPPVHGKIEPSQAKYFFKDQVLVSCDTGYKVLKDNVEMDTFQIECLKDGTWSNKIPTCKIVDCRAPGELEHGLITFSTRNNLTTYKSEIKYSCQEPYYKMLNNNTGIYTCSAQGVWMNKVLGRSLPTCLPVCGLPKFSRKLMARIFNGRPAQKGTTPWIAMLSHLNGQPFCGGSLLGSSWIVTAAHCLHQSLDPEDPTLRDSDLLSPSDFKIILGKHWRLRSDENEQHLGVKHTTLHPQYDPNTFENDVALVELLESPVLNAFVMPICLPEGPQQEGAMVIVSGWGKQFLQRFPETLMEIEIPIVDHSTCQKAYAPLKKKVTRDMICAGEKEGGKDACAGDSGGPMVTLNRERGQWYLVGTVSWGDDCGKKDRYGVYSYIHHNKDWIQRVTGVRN
UniProt O00187, residues 16-686: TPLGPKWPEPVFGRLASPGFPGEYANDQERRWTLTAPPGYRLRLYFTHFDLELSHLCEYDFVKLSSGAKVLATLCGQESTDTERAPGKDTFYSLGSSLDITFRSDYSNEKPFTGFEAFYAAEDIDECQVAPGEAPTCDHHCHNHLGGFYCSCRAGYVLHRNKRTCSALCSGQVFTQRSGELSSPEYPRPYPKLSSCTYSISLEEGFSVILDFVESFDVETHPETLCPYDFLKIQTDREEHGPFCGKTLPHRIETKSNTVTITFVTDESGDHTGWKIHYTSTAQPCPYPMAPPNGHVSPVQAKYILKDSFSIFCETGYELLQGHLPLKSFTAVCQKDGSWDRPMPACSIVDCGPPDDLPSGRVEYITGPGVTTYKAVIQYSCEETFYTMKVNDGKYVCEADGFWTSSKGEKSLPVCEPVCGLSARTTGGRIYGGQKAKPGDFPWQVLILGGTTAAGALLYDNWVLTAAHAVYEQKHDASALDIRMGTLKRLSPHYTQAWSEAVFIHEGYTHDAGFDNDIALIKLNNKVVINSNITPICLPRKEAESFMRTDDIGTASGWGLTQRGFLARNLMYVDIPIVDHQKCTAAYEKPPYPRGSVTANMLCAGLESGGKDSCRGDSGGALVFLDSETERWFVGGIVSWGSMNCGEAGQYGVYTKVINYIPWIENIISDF

Target: T1, scabies mite inactive serine protease paralogue SMIPP-S D1 (Sarcoptes scabiei)
T1 sequence: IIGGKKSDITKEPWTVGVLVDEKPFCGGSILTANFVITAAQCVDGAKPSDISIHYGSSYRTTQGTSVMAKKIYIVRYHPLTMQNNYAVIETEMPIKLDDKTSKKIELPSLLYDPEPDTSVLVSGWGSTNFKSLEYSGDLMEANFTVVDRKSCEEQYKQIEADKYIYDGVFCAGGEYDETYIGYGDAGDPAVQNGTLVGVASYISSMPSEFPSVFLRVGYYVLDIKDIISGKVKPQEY
Assay: ELISA; both purified

Substance | binding
recombinant MASP-1 (from UniProt P48740) (enzyme) | no binding (tested: 1 µg/ml)
recombinant MASP-2 (from UniProt O00187) (enzyme) | no binding (tested: 1 µg/ml)
